The structures given here were assigned with low confidence; some may be wrong.
Molecular target: hB2 receptor (Homo sapiens, UniProt P30411)
Test: In vitro Assay of hB2 Receptor Function using Calcium Flux
Format: cell-based
Conditions: read-out: Data (um), recombinant CHO cells, antagonist IC50 against agonist at EC80

Chains of the proteins cited; added tags and fusions are not shown.
UniProt P30411, whole entry: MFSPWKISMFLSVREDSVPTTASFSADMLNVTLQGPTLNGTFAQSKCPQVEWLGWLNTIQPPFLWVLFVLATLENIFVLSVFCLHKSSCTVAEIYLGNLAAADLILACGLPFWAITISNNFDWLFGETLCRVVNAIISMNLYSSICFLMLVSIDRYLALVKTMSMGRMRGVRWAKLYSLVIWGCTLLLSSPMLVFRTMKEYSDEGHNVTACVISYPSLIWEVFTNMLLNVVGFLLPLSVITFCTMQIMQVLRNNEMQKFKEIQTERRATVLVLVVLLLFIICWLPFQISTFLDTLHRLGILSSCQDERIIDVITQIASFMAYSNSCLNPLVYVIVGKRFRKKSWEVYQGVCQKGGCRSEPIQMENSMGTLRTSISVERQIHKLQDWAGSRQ

Cc1ccc(S(=O)(=O)N2C=CNC(=O)[C@H]2CC(=O)NC2CCCCC2C(C)(C)C)cc1 (stereo partly shown)
IC50: 21 nM

— US20090227601A1, “Bradykinin 1 Receptor Antagonists” (Amgen Inc., priority 2005, published 2009)
